# Test results: the odorant receptor screen of Mainland et al. (2015)
# Values joined by “and” are separate entries in the source; they are usually repeats but may differ in a detail not shown here. Equal entries are not always repeated. The list shows a part of the results. Single wells; the ratio to wells without odorant was worked out here, and repeats agree poorly.
# How the values were obtained:
# Assay in all cases: odorant receptor activation (CRE luciferase / Renilla) (fold of no-odor wells); higher = more activation
# Conditions in all cases: 100 µM
# OR13G1 I132V clone 1036 = system: OR13G1 I132V clone 1036
# OR13H1 clone 1497 = system: OR13H1 clone 1497
# OR13J1 H133R clone 1098 = system: OR13J1 H133R clone 1098
# OR14A16 Indel clone 1030 = system: OR14A16 Indel clone 1030
# OR14A2 clone 1042 = system: OR14A2 clone 1042
# [1] = system: OR14C36 G225R/D231Y clone 1028
# [2] = system: OR14I1 V36A/D50N/S170N clone 1479
# OR14J1 clone 1318 = system: OR14J1 clone 1318
# OR14J1 clone 1391 = system: OR14J1 clone 1391
# OR14K1 clone 1043 = system: OR14K1 clone 1043
# OR14L1 clone 1029 = system: OR14L1 clone 1029
# OR1A1 P285S clone 1531 = system: OR1A1 P285S clone 1531
# OR1A1 R128H clone 1528 = system: OR1A1 R128H clone 1528
# OR1A1 V233M clone 1287 = system: OR1A1 V233M clone 1287
# OR1A1 V233M clone 1530 = system: OR1A1 V233M clone 1530
# OR1A1 clone 1529 = system: OR1A1 clone 1529
# OR1A2 clone 1158 = system: OR1A2 clone 1158
# OR1C1 clone 1044 = system: OR1C1 clone 1044
# OR1D2 clone 1376 = system: OR1D2 clone 1376
# OR1D5 clone 1289 = system: OR1D5 clone 1289
Structure (SMILES),odorant receptor activation (OR13G1 I132V clone 1036),odorant receptor activation (OR13H1 clone 1497),odorant receptor activation (OR13J1 H133R clone 1098),odorant receptor activation (OR14A16 Indel clone 1030),odorant receptor activation (OR14A2 clone 1042),odorant receptor activation [1],odorant receptor activation [2],odorant receptor activation (OR14J1 clone 1318),odorant receptor activation (OR14J1 clone 1391),odorant receptor activation (OR14K1 clone 1043),odorant receptor activation (OR14L1 clone 1029),odorant receptor activation (OR1A1 P285S clone 1531),odorant receptor activation (OR1A1 R128H clone 1528),odorant receptor activation (OR1A1 V233M clone 1287),odorant receptor activation (OR1A1 V233M clone 1530),odorant receptor activation (OR1A1 clone 1529),odorant receptor activation (OR1A2 clone 1158),odorant receptor activation (OR1C1 clone 1044),odorant receptor activation (OR1D2 clone 1376),odorant receptor activation (OR1D5 clone 1289)
CC1=NC(C)SC1C (stereo not given),0.607,0.964 and 1,1.16,0.559,1.04,1.27,1.05 and 0.78,0.743,1.12,0.862,0.787,1.01 and 1.12,0.793 and 0.995,1.78,1.3 and 1.29,0.672 and 1.13,0.903,0.948,1.08,1.05
CC(=O)OCC=C(C)CCC=C(C)C [geranyl acetate],1.63,0.951 and 1.28,0.803,2.71,1.23,1.44,1.06 and 1.22,1.13 and 1.14,1.11,2.34,1.5,0.732 and 1.97,1.43 and 2.24,2.82 and 1.09 and 1.85,3.47 and 2.8,2.19 and 2.55,0.788,1.28,1.69,0.965 and 1.17
C=C(C)C1CCC2=CC(=O)CC(C)C2(C)C1 (stereo not given) [amyl laurate],,,,,,,,,,,,,,2.22,,,,,,
CC(C)CC(=O)O [isovaleric acid],1.13,0.928,1.4,1.42,1.09,1.28,0.791,0.708,0.765,1.08,1.51,0.943,1,,0.916,0.767,1.32,1.24,1.04,0.864
"CC1CCC(C(C)C)C(O)C1 (single isomer, unassigned; (-)) [(-)-menthol]",2.47,3.67,3.23,3.37,2.95,3.29,2.31,0.98,0.707,3.07,3.82,2.62,3.81,4.05 and 9.72,2.27,2.69,0.823,4.02,0.336,0.696
CCCCO [1-butanol],2.07,1.06,3.81,2.96,3.46,2.96,1.12,0.995,1.84,3.09,2.59,0.862,1.23,,1.42,1.18,0.864,3.34,0.817,0.908
CCCCCCC=O [heptaldehyde],0.799 and 0.909,,0.817 and 0.495,0.916 and 1.52,1.65 and 1.56,1.01 and 1.26,,,1.16 and 0.945,0.562 and 1.68,1.03 and 1.49,,,,,,0.536 and 0.728,1.39 and 0.72,1.19 and 1.23,0.305 and 0.908 and 0.66
CC(=O)OC(C)(C)C1CC=C(C)CC1 (stereo not given) [terpinyl acetate],1.3,1.04,1.48,1.48,1.62,1.01,1.05,1.05,0.989,1.43,1.62,1.35,1.7,6.24 and 3.58,2.84,2.14,1.2,1.42,0.927,0.942
C=C(C)C1CC=C(C)C(=O)C1 (stereo not given) [r-carvone],1.5,0.851,1.05,1.04,0.913,0.817,0.718,0.783,1.07,0.897,1.11,5.2,8.1,,,6.45,0.981,0.891,1.1,0.705
C=CC(C)(O)CCC=C(C)C (stereo not given) [linalool],1.03,0.92,0.973,1.13,0.954,1.15,0.992,0.86,0.833,0.998,1.54,1.35,1.23,2.61 and 1.91,1.43,1.28,1.12,2.67,1.42,0.964
C=CCSCC=C [diallyl sulfide],1.03,1.24,1.08,0.833,0.979,1,0.962,1.03,1.19,0.965,1.02,1.25,1.42,2.34 and 1.04,1.41,1.51,1.31,0.949,1.05,1.21
CC12C=CCC1C1CCC3CC(=O)CCC3(C)C1CC2 (stereo not given) [androstenone],2.11,1.02,2.2,1.82,1.89,1.91,1.03,1.08,2.27,1.4,1.75,0.872,1.1,1.52,1.47,1.21,6.11,1.98,0.59,1.04
C=CCc1ccc(O)c(OC)c1 [eugenol],0.732 and 1.76,1.46 and 1.13 and 1.6,0.997 and 1.66,0.93 and 1.44,3.44 and 1.69,1.59 and 1.68,1.57 and 0.765 and 1.23,1.37 and 1.38,1.22 and 1.41,0.557 and 1.59,1.54 and 2.02,,1.03 and 1.33 and 1.47,4.91 and 2.7 and 2.19,,1.46 and 2.12 and 1.69,1.91 and 1.37,1.09 and 1.4,1.44 and 1.51,3.19 and 1.51
c1ccc(Oc2ccccc2)cc1 [diphenyl ether],1.02,1.05,0.992,0.945,1,1.08,1.02,0.87,1.34,0.938,0.935,1.48,1.53,,2.21,1.81,0.95,0.939,0.81,1.08
CC(C)C(=O)O [isobutyric acid],1.44,0.911 and 1.1,0.754,1.32,1.04,1.15,1.02 and 0.919,2.15 and 0.804,0.637,1.12,2.24,0.884 and 0.724,0.941 and 0.745,,0.977 and 0.798,0.859 and 1.01,0.885,0.574,0.852,0.708 and 1.18
